Results as given in USRE46698E1, “Use of cyclohexanol derivatives as antimicrobial active compounds” (MERCK PATENT GMBH, priority 2011, dated 2018).

Assay: Deodorant action, inherent odour (Example 2)

CCCCOC(=O)C1CCC(O)CC1 (stereo not shown) [Substance I-20, 4-hydroxycyclohexanecarboxylic acid butyl ester]
Inherent odour: of raspberry
